Results deposited as PubChem BioAssay AID652243 (Drosophila RNAi Screening Center, 2013)
Test: 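Fly regulators of androgen-dependent reporter output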 (primary screen). System: Drosophila S2R+ cells. Knock-down reagent: long dsRNA against Drosophila genes. Time to read-out: 72 h (48 h, then 24 h hormone). Challenge: synthetic androgen R1881 at 10 nM for 24 h. Measured: 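Firefly light from an androgen-responsive reporter and Renilla control light per well, raw and unnormalised, for each of two replicates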. Scale: firefly reporter light: higher = more light from androgen-responsive reporter; Renilla control light: higher = more constitutive control signal (cell number, transfection). Rule for the call: 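Across duplicate plates, a knock-down whose log firefly/Renilla ratio shifted a set fold down or up from the GFP/LacZ control mean was a hit; the downward cut appears as both 1.5 and 3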. Calls: active = hit: reporter lowered or raised; inactive = no hit.
In all, the deposit lists about 24,000 reagents; below is an unselected part of those with a known target gene and a result. Of all reagents, 246 (1%) got an active call. 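Plates not normalised; calls are printed but the firefly/Renilla ratio behind them is not deposited; fold cut for lowering reported inconsistently.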 Raw values are not corrected between plates. The numbers tell different reagents against one gene apart. The record does not give: the amount of reagent.

What did the screen give for CG1172 #1?
firefly reporter light, replicate 1: 32226; firefly reporter light, replicate 2: 38923; Renilla control light, replicate 1: 6.62e5; Renilla control light, replicate 2: 6.91e5; activity call: inactive

What did the screen give for CG1172 #2?
firefly reporter light, replicate 1: 3.08e5; firefly reporter light, replicate 2: 2.62e5; Renilla control light, replicate 1: 1.14e6; Renilla control light, replicate 2: 1.01e6; activity call: inactive

What is on record for CG1172 #3?
firefly reporter light, replicate 1: 9.25e5; firefly reporter light, replicate 2: 7.36e5; Renilla control light, replicate 1: 1.10e6; Renilla control light, replicate 2: 9.47e5; activity call: inactive

What did the screen give for NT1 #1?
firefly reporter light, replicate 1: 1.04e5; firefly reporter light, replicate 2: 1.19e5; Renilla control light, replicate 1: 1.31e6; Renilla control light, replicate 2: 1.56e6; activity call: inactive

For NT1 #2, what was measured?
firefly reporter light, replicate 1: 8.59e5; firefly reporter light, replicate 2: 1.09e6; Renilla control light, replicate 1: 1.68e6; Renilla control light, replicate 2: 1.90e6; activity call: inactive

For Pdzd8 #1, how do the results read?
firefly reporter light, replicate 1: 1.98e5; firefly reporter light, replicate 2: 2.28e5; Renilla control light, replicate 1: 3.74e6; Renilla control light, replicate 2: 3.93e6; activity call: active

For Pdzd8 #2, how do the results read?
firefly reporter light, replicate 1: 6.88e5; firefly reporter light, replicate 2: 7.27e5; Renilla control light, replicate 1: 1.04e6; Renilla control light, replicate 2: 1.04e6; activity call: inactive

Which result is listed for Polr2J #1?
firefly reporter light, replicate 1: 2.16e5; firefly reporter light, replicate 2: 2.43e5; Renilla control light, replicate 1: 2.67e6; Renilla control light, replicate 2: 2.54e6; activity call: inactive

Which result is listed for Polr2J #2?
firefly reporter light, replicate 1: 5.29e5; firefly reporter light, replicate 2: 2.21e5; Renilla control light, replicate 1: 8.03e5; Renilla control light, replicate 2: 1.38e5; activity call: inactive

With CG7465 #1, what was measured?
firefly reporter light, replicate 1: 1.56e5; firefly reporter light, replicate 2: 1.94e5; Renilla control light, replicate 1: 2.12e6; Renilla control light, replicate 2: 3.53e6; activity call: inactive

Which result is listed for CG7465 #2?
firefly reporter light, replicate 1: 6.84e5; firefly reporter light, replicate 2: 7.96e5; Renilla control light, replicate 1: 2.65e6; Renilla control light, replicate 2: 2.59e6; activity call: inactive

For CG7465 #3, what does the deposit list?
firefly reporter light, replicate 1: 1.37e6; firefly reporter light, replicate 2: 1.38e6; Renilla control light, replicate 1: 1.49e6; Renilla control light, replicate 2: 1.22e6; activity call: inactive

What did the screen give for CG10996?
firefly reporter light, replicate 1: 4.61e5; firefly reporter light, replicate 2: 4.26e5; Renilla control light, replicate 1: 2.80e6; Renilla control light, replicate 2: 2.84e6; activity call: inactive

What is on record for DIP-theta #1?
firefly reporter light, replicate 1: 4.26e5; firefly reporter light, replicate 2: 3.28e5; Renilla control light, replicate 1: 2.02e6; Renilla control light, replicate 2: 2.47e6; activity call: inactive

For DIP-theta #2, what does the deposit list?
firefly reporter light, replicate 1: 1.69e5; firefly reporter light, replicate 2: 1.55e5; Renilla control light, replicate 1: 1.50e6; Renilla control light, replicate 2: 1.01e6; activity call: inactive

Which result is listed for bi #1?
firefly reporter light, replicate 1: 3.27e5; firefly reporter light, replicate 2: 3.18e5; Renilla control light, replicate 1: 3.05e6; Renilla control light, replicate 2: 2.90e6; activity call: inactive

For bi #2, what does the deposit list?
firefly reporter light, replicate 1: 4.37e5; firefly reporter light, replicate 2: 5.09e5; Renilla control light, replicate 1: 1.09e6; Renilla control light, replicate 2: 1.26e6; activity call: inactive

For bi #3, how do the results read?
firefly reporter light, replicate 1: 7.69e5; firefly reporter light, replicate 2: 8.28e5; Renilla control light, replicate 1: 1.79e6; Renilla control light, replicate 2: 1.75e6; activity call: inactive

With Nhe3, what was measured?
firefly reporter light, replicate 1: 1.92e5; firefly reporter light, replicate 2: 1.93e5; Renilla control light, replicate 1: 2.21e6; Renilla control light, replicate 2: 1.91e6; activity call: inactive

What is on record for asl?
firefly reporter light, replicate 1: 21262; firefly reporter light, replicate 2: 71433; Renilla control light, replicate 1: 3.76e5; Renilla control light, replicate 2: 3.54e5; activity call: inactive

For CG5543, what was measured?
firefly reporter light, replicate 1: 7.53e5; firefly reporter light, replicate 2: 5.54e5; Renilla control light, replicate 1: 1.26e6; Renilla control light, replicate 2: 9.67e5; activity call: inactive

A portion of the results above:
bi #1 — firefly reporter light, replicate 1: 3.27e5; firefly reporter light, replicate 2: 3.18e5; Renilla control light, replicate 1: 3.05e6; Renilla control light, replicate 2: 2.90e6; activity call: inactive
bi #2 — firefly reporter light, replicate 1: 4.37e5; firefly reporter light, replicate 2: 5.09e5; Renilla control light, replicate 1: 1.09e6; Renilla control light, replicate 2: 1.26e6; activity call: inactive
